According to the supplement of paper PMC10849652:
This is one part of the list.

Amino acid sequences for entries named in this document (tags omitted). A change or cut given only in a name is not applied to a line headed by its entry.
UniProt Q9Y2T2: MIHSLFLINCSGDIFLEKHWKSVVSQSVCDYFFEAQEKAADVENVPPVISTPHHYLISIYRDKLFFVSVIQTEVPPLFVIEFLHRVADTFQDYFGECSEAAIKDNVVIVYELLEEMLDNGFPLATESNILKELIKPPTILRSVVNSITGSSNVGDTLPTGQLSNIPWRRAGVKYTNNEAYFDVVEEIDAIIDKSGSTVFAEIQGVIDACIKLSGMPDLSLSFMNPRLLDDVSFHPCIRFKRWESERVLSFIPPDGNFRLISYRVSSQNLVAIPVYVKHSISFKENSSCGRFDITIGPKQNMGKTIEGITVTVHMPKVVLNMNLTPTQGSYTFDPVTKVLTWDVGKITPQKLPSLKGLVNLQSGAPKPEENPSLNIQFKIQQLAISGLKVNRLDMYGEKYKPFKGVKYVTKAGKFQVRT
UniProt Q8IWZ3: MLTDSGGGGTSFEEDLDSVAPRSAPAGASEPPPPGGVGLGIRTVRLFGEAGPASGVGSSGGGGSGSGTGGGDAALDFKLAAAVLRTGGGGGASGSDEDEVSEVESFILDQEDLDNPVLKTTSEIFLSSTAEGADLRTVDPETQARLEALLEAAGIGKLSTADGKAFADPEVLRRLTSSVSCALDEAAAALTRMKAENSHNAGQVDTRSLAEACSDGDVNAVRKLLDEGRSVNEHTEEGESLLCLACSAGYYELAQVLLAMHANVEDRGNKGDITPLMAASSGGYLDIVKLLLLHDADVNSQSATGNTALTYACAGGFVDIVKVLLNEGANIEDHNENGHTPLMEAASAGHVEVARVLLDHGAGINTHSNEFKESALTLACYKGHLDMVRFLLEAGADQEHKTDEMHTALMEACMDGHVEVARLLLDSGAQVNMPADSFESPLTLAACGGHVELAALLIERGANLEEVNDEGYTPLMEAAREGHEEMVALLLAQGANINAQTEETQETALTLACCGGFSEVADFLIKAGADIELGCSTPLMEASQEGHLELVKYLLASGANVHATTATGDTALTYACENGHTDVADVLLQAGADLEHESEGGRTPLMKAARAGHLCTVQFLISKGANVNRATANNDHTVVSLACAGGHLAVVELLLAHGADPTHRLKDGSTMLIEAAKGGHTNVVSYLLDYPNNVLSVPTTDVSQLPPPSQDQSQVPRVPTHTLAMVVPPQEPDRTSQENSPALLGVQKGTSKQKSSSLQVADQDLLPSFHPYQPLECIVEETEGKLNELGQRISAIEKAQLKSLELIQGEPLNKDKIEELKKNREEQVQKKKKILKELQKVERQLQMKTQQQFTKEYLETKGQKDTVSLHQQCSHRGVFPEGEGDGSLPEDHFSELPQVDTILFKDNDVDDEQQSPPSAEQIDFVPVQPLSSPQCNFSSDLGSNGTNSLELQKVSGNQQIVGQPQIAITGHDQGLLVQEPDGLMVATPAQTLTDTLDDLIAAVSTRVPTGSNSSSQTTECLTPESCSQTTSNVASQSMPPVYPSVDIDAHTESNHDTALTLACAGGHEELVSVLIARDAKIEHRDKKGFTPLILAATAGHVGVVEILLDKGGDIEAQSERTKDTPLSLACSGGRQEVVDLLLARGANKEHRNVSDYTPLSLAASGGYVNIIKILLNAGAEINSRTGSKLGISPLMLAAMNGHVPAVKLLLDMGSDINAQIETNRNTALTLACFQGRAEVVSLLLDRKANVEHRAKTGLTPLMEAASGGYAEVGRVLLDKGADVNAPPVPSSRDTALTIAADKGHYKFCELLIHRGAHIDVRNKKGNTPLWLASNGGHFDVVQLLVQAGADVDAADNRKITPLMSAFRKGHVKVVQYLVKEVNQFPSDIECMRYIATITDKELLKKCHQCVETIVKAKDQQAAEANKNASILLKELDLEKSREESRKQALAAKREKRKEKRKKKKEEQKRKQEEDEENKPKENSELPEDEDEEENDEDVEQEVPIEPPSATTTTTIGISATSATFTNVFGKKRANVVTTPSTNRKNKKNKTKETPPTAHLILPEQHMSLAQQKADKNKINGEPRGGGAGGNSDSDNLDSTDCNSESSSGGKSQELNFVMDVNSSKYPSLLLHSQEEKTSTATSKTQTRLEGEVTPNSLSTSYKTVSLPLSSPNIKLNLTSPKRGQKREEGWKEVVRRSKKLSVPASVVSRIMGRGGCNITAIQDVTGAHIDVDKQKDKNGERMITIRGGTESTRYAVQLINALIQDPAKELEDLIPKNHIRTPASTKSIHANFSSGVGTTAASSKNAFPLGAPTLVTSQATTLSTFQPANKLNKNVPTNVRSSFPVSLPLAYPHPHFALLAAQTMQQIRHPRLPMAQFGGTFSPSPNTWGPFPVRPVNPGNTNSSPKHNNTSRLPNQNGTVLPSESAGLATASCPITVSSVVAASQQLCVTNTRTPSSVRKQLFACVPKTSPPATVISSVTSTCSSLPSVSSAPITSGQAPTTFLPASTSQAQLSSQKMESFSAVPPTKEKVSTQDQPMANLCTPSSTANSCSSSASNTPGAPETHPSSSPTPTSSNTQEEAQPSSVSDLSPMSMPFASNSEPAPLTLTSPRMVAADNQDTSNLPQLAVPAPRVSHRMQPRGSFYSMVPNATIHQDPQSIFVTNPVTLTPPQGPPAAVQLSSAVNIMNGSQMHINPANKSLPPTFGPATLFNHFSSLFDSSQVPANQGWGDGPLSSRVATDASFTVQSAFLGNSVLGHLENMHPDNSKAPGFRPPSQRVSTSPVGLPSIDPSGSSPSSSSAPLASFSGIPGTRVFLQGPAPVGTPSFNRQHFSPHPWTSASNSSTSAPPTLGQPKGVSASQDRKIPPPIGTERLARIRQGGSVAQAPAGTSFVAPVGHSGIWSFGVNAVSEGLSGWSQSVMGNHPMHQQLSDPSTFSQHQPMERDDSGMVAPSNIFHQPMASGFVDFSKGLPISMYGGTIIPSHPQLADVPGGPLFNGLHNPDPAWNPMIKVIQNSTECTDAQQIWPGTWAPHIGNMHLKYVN
UniProt P04083: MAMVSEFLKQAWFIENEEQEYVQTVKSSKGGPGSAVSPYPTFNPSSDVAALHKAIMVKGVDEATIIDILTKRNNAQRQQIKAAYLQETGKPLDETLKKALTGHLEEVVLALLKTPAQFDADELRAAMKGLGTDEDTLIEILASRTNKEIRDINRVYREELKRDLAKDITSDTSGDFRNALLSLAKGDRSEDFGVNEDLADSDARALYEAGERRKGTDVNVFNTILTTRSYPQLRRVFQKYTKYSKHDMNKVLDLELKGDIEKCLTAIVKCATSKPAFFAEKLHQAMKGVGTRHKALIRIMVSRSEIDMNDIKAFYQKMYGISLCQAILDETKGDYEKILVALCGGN
UniProt Q4KMQ2: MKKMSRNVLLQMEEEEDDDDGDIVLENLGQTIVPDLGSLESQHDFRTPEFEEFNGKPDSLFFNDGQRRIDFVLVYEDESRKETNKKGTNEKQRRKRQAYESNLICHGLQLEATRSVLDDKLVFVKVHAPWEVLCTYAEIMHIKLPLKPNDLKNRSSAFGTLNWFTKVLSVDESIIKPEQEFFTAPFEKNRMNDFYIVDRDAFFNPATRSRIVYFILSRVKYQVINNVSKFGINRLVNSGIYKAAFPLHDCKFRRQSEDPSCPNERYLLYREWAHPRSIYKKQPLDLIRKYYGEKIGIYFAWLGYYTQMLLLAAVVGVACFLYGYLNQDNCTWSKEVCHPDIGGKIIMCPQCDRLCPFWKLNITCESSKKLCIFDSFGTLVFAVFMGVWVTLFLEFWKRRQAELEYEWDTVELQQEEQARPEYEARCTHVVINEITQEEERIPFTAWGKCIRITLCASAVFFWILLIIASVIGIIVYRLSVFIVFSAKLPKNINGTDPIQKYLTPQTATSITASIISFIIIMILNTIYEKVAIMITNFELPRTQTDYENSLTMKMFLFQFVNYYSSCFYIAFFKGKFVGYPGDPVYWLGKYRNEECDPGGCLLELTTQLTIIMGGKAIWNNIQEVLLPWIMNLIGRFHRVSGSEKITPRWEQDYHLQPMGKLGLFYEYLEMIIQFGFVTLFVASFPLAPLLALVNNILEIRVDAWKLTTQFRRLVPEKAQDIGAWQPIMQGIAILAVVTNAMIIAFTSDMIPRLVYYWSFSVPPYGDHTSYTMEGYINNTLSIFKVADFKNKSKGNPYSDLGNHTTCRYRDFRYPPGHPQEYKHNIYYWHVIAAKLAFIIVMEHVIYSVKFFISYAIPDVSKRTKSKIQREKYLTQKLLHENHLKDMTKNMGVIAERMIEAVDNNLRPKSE
UniProt P50995, whole entry, looked up: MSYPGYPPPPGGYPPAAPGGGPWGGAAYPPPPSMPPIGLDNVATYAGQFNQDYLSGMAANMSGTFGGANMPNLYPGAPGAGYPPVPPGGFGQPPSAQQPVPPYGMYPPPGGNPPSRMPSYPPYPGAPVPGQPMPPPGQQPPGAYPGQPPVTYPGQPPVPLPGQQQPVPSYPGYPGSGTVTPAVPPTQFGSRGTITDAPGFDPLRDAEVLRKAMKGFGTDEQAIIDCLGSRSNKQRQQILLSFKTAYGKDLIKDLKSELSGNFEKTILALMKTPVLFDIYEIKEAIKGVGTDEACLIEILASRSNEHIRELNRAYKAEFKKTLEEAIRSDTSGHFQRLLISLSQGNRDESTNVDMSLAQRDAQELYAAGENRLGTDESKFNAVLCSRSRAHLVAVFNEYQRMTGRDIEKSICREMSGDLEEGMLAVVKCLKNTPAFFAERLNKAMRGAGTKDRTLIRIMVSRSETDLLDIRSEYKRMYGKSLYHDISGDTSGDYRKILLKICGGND
UniProt O43299: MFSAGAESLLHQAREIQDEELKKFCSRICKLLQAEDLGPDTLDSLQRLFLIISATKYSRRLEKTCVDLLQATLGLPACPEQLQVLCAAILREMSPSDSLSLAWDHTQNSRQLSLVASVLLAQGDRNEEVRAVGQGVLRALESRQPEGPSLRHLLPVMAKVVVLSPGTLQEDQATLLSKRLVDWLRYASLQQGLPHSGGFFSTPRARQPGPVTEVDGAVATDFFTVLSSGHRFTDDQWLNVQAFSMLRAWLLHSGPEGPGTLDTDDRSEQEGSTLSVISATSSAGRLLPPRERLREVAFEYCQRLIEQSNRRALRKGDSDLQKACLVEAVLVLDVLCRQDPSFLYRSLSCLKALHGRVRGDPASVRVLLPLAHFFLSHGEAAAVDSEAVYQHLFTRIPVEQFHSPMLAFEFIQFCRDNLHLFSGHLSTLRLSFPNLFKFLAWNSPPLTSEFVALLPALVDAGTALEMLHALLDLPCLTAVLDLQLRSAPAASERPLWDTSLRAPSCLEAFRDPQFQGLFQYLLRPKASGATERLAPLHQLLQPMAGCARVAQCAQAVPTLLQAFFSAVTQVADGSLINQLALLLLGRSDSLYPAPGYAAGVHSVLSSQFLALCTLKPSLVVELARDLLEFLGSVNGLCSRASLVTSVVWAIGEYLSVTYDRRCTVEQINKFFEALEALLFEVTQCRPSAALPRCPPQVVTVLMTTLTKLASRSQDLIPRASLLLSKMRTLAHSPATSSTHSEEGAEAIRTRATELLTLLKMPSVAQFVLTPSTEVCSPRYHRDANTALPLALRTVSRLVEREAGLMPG
UniProt Q6UXV4: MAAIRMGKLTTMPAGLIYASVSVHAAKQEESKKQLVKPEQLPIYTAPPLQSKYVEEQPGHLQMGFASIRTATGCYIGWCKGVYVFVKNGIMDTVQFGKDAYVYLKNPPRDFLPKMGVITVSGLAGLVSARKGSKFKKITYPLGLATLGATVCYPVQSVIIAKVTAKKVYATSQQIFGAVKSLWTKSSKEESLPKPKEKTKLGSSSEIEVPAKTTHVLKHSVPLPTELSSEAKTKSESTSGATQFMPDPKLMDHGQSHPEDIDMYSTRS
UniProt Q96GX9: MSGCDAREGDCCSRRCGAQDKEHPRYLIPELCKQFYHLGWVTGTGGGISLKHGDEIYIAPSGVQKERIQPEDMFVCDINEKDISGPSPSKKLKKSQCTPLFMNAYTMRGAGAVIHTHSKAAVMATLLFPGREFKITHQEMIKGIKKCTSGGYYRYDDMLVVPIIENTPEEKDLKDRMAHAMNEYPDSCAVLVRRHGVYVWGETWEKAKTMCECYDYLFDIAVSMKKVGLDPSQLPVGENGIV
UniProt Q9NP61: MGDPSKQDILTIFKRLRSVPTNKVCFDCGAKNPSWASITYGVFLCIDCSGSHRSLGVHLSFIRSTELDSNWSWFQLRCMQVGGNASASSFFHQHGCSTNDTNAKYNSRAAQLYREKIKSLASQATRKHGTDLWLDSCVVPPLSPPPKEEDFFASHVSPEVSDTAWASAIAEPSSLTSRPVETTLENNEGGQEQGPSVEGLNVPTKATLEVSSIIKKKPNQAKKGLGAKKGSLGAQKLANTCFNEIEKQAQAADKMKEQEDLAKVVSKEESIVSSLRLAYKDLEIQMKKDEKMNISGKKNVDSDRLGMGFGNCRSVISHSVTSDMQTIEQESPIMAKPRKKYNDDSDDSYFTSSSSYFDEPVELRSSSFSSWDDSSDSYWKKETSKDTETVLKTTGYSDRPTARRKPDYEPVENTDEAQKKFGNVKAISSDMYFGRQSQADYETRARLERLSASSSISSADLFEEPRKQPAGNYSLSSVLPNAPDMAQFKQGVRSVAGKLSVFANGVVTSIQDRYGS

Tests used:
Assay in all cases: log2 fold change, soluble protein after heating vs DMSO (PISA); higher = thermal stabilisation; K562 cells, 10 uM, 30 min; active = over 0.2 and 3.5 SD of the protein, either way, in both replicates (recomputed)
[1] = compound: CS(=O)(=O)c1ccc(-c2cnc(N)c(C(=O)Nc3ccccc3)n2)cc1
How it was run: (§1)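 K562 cells at 2×10^6 cells/mL were given 10 μM compound for 30 min. Aliquots then went through 3 min of heating across 48°C-58°C, were pooled, and were extracted in PBS with 0.5% NP-40 at 4°C, and the supernatant after 21,000xg for 90 min was quantified by TMTpro 16plex LC-MS/MS with channel sums equalised. Thermal stability relative to control samples, from duplicates, is given as log2 fold change.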

crizotinib = compound: C[C@@H](Oc1cc(-c2cnn(C3CCNCC3)c2)cnc1N)c1c(Cl)ccc(F)c1Cl [crizotinib]
How it was run: as §1

[2] = compound: C[C@@H]1COCCN1C2=NC(=NC(=C2)C3(CC3)S(=O)(=O)C)C4=C5C=CNC5=CC=C4
How it was run: as §1

[3] = compound: C[C@H](C1=CC=C(C=C1)C(=O)NC2=C3C=CNC3=NC=C2)N
How it was run: as §1

duvelisib = compound: C[C@H](Nc1ncnc2nc[nH]c12)c1cc2cccc(Cl)c2c(=O)n1-c1ccccc1 [duvelisib]
How it was run: as §1

gandotinib = compound: Cc1cc(Nc2cc(CN3CCOCC3)c3nc(C)c(Cc4ccc(Cl)cc4F)n3n2)n[nH]1 [gandotinib]
How it was run: as §1

tozasertib = compound: Cc1cc(Nc2cc(N3CCN(C)CC3)nc(Sc3ccc(NC(=O)C4CC4)cc3)n2)n[nH]1 [tozasertib]
How it was run: as §1

[4] = compound: Cc1cc(SCc2sc(-c3ccc(C(F)(F)F)cc3)nc2C)ccc1OCC(=O)O
How it was run: as §1

doramapimod = compound: Cc1ccc(-n2nc(C(C)(C)C)cc2NC(=O)Nc2ccc(OCCN3CCOCC3)c3ccccc23)cc1 [doramapimod]
How it was run: as §1

ispinesib = compound: Cc1ccc(C(=O)N(CCCN)[C@@H](c2nc3cc(Cl)ccc3c(=O)n2Cc2ccccc2)C(C)C)cc1 [ispinesib]
How it was run: as §1

bafetinib = compound: Cc1ccc(NC(=O)c2ccc(CN3CC[C@H](N(C)C)C3)c(C(F)(F)F)c2)cc1Nc1nccc(-c2cncnc2)n1 [bafetinib]
How it was run: as §1

[5] = compound: Cc1cccc(CC(=O)N2CCc3c2ccc(-c2cn(C)c4ncnc(N)c24)c3F)n1
How it was run: as §1

nilotinib = compound: Cc1cn(-c2cc(NC(=O)c3ccc(C)c(Nc4nccc(-c5cccnc5)n4)c3)cc(C(F)(F)F)c2)cn1 [nilotinib]
How it was run: as §1

[6] = compound: Cc1nc(Nc2n[nH]c3c2CN(C(=O)N[C@H](CN(C)C)c2ccccc2)C3(C)C)c2sccc2n1
How it was run: as §1

dasatinib = compound: Cc1nc(Nc2ncc(C(=O)Nc3c(C)cccc3Cl)s2)cc(N2CCN(CCO)CC2)n1 [dasatinib]
How it was run: as §1

[7] = compound: Cc1ncc(-c2ccnc(Nc3ccc(S(C)(=O)=O)cc3)n2)n1C(C)C
How it was run: as §1

[8] = compound: Cn1cc(-c2ccc3c(c2)CCN3C(=O)Cc2cccc(C(F)(F)F)c2)c2c(N)ncnc21
How it was run: as §1

[9] = compound: Cn1cc(-c2ccc3nnc(C(F)(F)c4ccc5ncccc5c4)n3n2)cn1
How it was run: as §1

tipifarnib = compound: Cn1cncc1[C@@](N)(c1ccc(Cl)cc1)c1ccc2c(c1)c(-c1cccc(Cl)c1)cc(=O)n2C [tipifarnib]
How it was run: as §1

mubritinib = compound: FC(F)(F)c1ccc(/C=C/c2nc(COc3ccc(CCCCn4ccnn4)cc3)co2)cc1 [mubritinib]
How it was run: as §1

Measured: log2 fold change

AP3M1 (UniProt Q9Y2T2)
inactive: [1] 0.012 | crizotinib -0.117 | [2] 0.012 | [3] 0.007 | duvelisib -0.015 | gandotinib -0.081 | tozasertib 0.011 | [4] 0.055 | doramapimod -0.005 | ispinesib -0.027 | bafetinib 0.031 | [5] 0.076 | nilotinib -0.079 | [6] -0.037 | dasatinib -0.046 | [7] -0.025 | [8] 0.01 | [9] -0.006 | tipifarnib -0.037 | mubritinib 0.027

ANKHD1 isoform 6 (UniProt Q8IWZ3)
inactive: [1] 0.042 | crizotinib -0.086 | [2] -0.088 | [3] 0.248 | duvelisib -0.093 | gandotinib 0 | tozasertib 0.041 | [4] 0.199 | doramapimod 0.132 | ispinesib -0.145 | bafetinib 0.039 | [5] 0.08 | nilotinib -0.092 | [6] -0.02 | dasatinib -0.058 | [7] -0.023 | [8] -0.064 | [9] -0.067 | tipifarnib -0.131 | mubritinib -0.039

ANXA1 (UniProt P04083)
inactive: [1] 0.067 | crizotinib 0.004 | [2] 0.057 | [3] -0.038 | duvelisib 0.029 | gandotinib -0.084 | tozasertib 0.08 | [4] 0.072 | doramapimod -0.062 | ispinesib 0.001 | bafetinib 0 | [5] 0.013 | nilotinib -0.085 | [6] -0.08 | dasatinib -0.09 | [7] 0.037 | [8] 0.004 | [9] -0.013 | tipifarnib -0.096 | mubritinib 0.054

ARCN1 (UniProt P48444)
inactive: [1] -0.005 | crizotinib 0.054 | [2] 0.038 | [3] -0.014 | duvelisib 0.029 | gandotinib -0.09 | tozasertib 0.026 | [4] 0.006 | doramapimod -0.044 | ispinesib 0.086 | bafetinib -0.003 | [5] 0.023 | nilotinib -0.037 | [6] -0.025 | dasatinib -0.042 | [7] -0.01 | [8] -0.007 | [9] 0.005 | tipifarnib -0.001 | mubritinib 0.023

Reprinted at random: 2 entries already listed, in no set order.
ARCN1 (UniProt P48444)
inactive: [1] -0.005 | crizotinib 0.054 | [2] 0.038 | [3] -0.014 | duvelisib 0.029 | gandotinib -0.09 | tozasertib 0.026 | [4] 0.006 | doramapimod -0.044 | ispinesib 0.086 | bafetinib -0.003 | [5] 0.023 | nilotinib -0.037 | [6] -0.025 | dasatinib -0.042 | [7] -0.01 | [8] -0.007 | [9] 0.005 | tipifarnib -0.001 | mubritinib 0.023

ANKHD1 isoform 6 (UniProt Q8IWZ3)
inactive: [1] 0.042 | crizotinib -0.086 | [2] -0.088 | [3] 0.248 | duvelisib -0.093 | gandotinib 0 | tozasertib 0.041 | [4] 0.199 | doramapimod 0.132 | ispinesib -0.145 | bafetinib 0.039 | [5] 0.08 | nilotinib -0.092 | [6] -0.02 | dasatinib -0.058 | [7] -0.023 | [8] -0.064 | [9] -0.067 | tipifarnib -0.131 | mubritinib -0.039

(listing goes on)

ARHGEF1 isoform 3 (UniProt Q92888)
inactive: [1] 0.041 | crizotinib -0.111 | [2] -0.072 | [3] 0.225 | duvelisib -0.094 | gandotinib 0.041 | tozasertib 0.095 | [4] 0.063 | doramapimod 0.15 | ispinesib -0.263 | bafetinib 0.098 | [5] 0.079 | nilotinib -0.037 | [6] -0.013 | dasatinib -0.065 | [7] 0.002 | [8] -0.1 | [9] -0.113 | tipifarnib -0.085 | mubritinib 0.02

ANO6 isoform 2 (UniProt Q4KMQ2)
inactive: [1] 0.034 | crizotinib -0.033 | [2] 0.176 | [3] -0.163 | duvelisib 0.052 | gandotinib -0.121 | tozasertib -0.024 | [4] -0.015 | doramapimod -0.035 | ispinesib -0.159 | bafetinib 0.003 | [5] 0.014 | nilotinib 0.013 | [6] -0.048 | dasatinib 0.006 | [7] 0.009 | [8] 0.055 | [9] 0.009 | tipifarnib 0.002 | mubritinib 0.039

ANP32B (UniProt Q92688)
inactive: [1] 0.02 | crizotinib 0.123 | [2] 0.056 | [3] -0.044 | duvelisib 0.02 | gandotinib -0.054 | tozasertib 0.021 | [4] 0.016 | doramapimod -0.036 | ispinesib 0.054 | bafetinib -0.019 | [5] 0.005 | nilotinib -0.022 | [6] -0.025 | dasatinib -0.005 | [7] -0.075 | [8] 0.004 | [9] 0.01 | tipifarnib -0.009 | mubritinib 0.006

ANXA11 (UniProt P50995)
inactive: [1] 0.005 | crizotinib 0.012 | [2] 0.091 | [3] -0.064 | duvelisib 0.019 | gandotinib -0.004 | tozasertib 0.007 | [4] 0.059 | doramapimod -0.061 | ispinesib 0.009 | bafetinib -0.023 | [5] 0.026 | nilotinib -0.031 | [6] 0.007 | dasatinib -0.098 | [7] 0.039 | [8] 0.069 | [9] 0.034 | tipifarnib -0.1 | mubritinib 0.094

AP1M1 (UniProt Q9BXS5)
inactive: [1] 0.046 | crizotinib 0.006 | [2] 0.037 | [3] 0.031 | duvelisib -0.012 | gandotinib -0.095 | tozasertib 0.039 | [4] 0 | doramapimod 0.004 | ispinesib -0.002 | bafetinib -0.011 | [5] 0.014 | nilotinib -0.042 | [6] -0.062 | dasatinib 0.011 | [7] 0.025 | [8] -0.035 | [9] -0.017 | tipifarnib -0.01 | mubritinib 0.004

AP5Z1 (UniProt O43299)
inactive: [1] 0.074 | crizotinib -0.005 | [2] -0.104 | [3] 0.104 | duvelisib 0.062 | gandotinib -0.321 | tozasertib -0.093 | [4] -0.058 | doramapimod -0.048 | ispinesib -0.188 | bafetinib -0.334 | [5] -0.13 | nilotinib 0.007 | [6] -0.006 | dasatinib 0.046 | [7] -0.04 | [8] -0.001 | [9] 0.066 | tipifarnib 0.065 | mubritinib 0.057

APOOL (UniProt Q6UXV4)
inactive: [1] 0.006 | crizotinib 0.058 | [2] 0.002 | [3] -0.015 | duvelisib 0.003 | gandotinib -0.035 | tozasertib 0.02 | [4] -0.053 | doramapimod -0.015 | ispinesib 0.017 | bafetinib -0.051 | [5] -0.015 | nilotinib 0.019 | [6] 0 | dasatinib 0.019 | [7] 0.003 | [8] -0.011 | [9] 0.016 | tipifarnib 0.009 | mubritinib 0.049

AP3B1 (UniProt O00203)
inactive: [1] 0.038 | crizotinib -0.071 | [2] -0.007 | [3] 0.051 | duvelisib 0.008 | gandotinib -0.059 | tozasertib -0.002 | [4] 0.075 | doramapimod -0.015 | ispinesib 0 | bafetinib 0.007 | [5] 0.054 | nilotinib -0.045 | [6] -0.029 | dasatinib -0.095 | [7] 0.015 | [8] 0.005 | [9] -0.019 | tipifarnib -0.064 | mubritinib 0.06

ARHGAP18 (UniProt Q8N392)
inactive: [1] 0.074 | crizotinib -0.103 | [2] 0 | [3] 0.031 | duvelisib -0.013 | gandotinib -0.134 | tozasertib 0.103 | [4] 0.095 | doramapimod -0.054 | ispinesib -0.124 | bafetinib -0.005 | [5] 0.056 | nilotinib -0.092 | [6] -0.041 | dasatinib -0.233 | [7] 0.12 | [8] 0.08 | [9] 0.019 | tipifarnib -0.109 | mubritinib 0.191

APIP (UniProt Q96GX9)
inactive: [1] 0.042 | crizotinib 0.028 | [2] 0.009 | [3] -0.01 | duvelisib 0.037 | gandotinib -0.037 | tozasertib -0.061 | [4] -0.032 | doramapimod 0 | ispinesib -0.003 | bafetinib 0.052 | [5] -0.05 | nilotinib 0.051 | [6] 0.023 | dasatinib 0.019 | [7] -0.014 | [8] 0.038 | [9] -0.038 | tipifarnib 0.003 | mubritinib 0.031

ANAPC16 (UniProt Q96DE5)
inactive: [1] -0.058 | crizotinib 0.086 | [2] 0.113 | [3] 0.007 | duvelisib 0.105 | gandotinib 0.043 | tozasertib 0.036 | [4] -0.051 | doramapimod -0.057 | ispinesib 0.065 | bafetinib 0.014 | [5] 0.018 | nilotinib 0.027 | [6] -0.019 | dasatinib 0.026 | [7] -0.056 | [8] -0.04 | [9] 0.155 | tipifarnib 0.038 | mubritinib 0.001

ARFGAP3 (UniProt Q9NP61)
inactive: [1] 0.01 | crizotinib -0.03 | [2] 0.066 | [3] -0.01 | duvelisib 0.106 | gandotinib -0.032 | tozasertib -0.017 | [4] 0.035 | doramapimod 0.032 | ispinesib 0.16 | bafetinib -0.024 | [5] 0.031 | nilotinib -0.035 | [6] -0.021 | dasatinib -0.065 | [7] 0.002 | [8] 0.015 | [9] -0.011 | tipifarnib 0.019 | mubritinib 0.002
